{"source": "PubChem BioAssay AID2685", "about": "(National Center for Advancing Translational Sciences (NCATS), 2010)", "assay": "qHTS Assay for Lipid Storage Modulators in Drosophila S3 Cells;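 on cell number change: cells counted by Cell Tracker Red CMTPX staining in the red channel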", "settings": "BODIPY lipid droplet fluorescence, 18-24 h; for cell number change: measured here: cell count max response, cells fed with added oleic acid", "how_it_was_run": "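Laser-scanning cytometry quantifies lipid droplet accumulation (500–530 nm total intensity; droplet/cell object ratio) in oleic acid-fed (400 uM added) Drosophila S3 cells treated with a concentration series. 20 uM Triacsin C defined 100% inhibition.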", "key": {"[1]": {"settings": "measured here: cell number channel AC50, cells fed with added oleic acid"}, "[2]": {"settings": "measured here: lipid fluorescence (Fed channel) AC50, cells fed with added oleic acid"}}, "note": "Some of the results follow. These are further read-outs of the screen, such as a control signal, another cell line or another target. No call is given for them. Most of these compounds were active or inconclusive in the main read-out, so they are no random draw. Words in brackets tell the shape of the fitted curve; partial curves, single points and poor fits give uncertain potencies.", "data": [{"smiles": "COc1ccc(CNC(=O)C2CCC(=O)N2C(C)C)c(OC)c1", "note": "(stereo unspecified)", "values": [{"measurement": "cell number change", "value": -12.9, "unit": "%"}]}, {"smiles": "COc1cccc(NC(=O)CN(C)C(=O)c2ccccc2OCC(=O)Nc2cccc(C(F)(F)F)c2)c1", "values": [{"measurement": "cell number change", "value": 32.6, "unit": "%"}, {"measurement": "AC50", "setting": "[1]", "value": "6.51 µM [rising, full curve, poor fit]"}]}, {"smiles": "COc1cc(C)c(CN2CCSCC2)cc1C", "values": [{"measurement": "cell number change", "value": -9.49, "unit": "%"}, {"measurement": "AC50", "setting": "[2]", "value": "0.58 µM [falling, single point]"}]}, {"smiles": "COc1ccc(NC(=O)c2cc(Br)ccc2Cl)c(OC)c1", "values": [{"measurement": "AC50", "setting": "[2]", "value": "6.51 µM [rising, partial curve]"}]}, {"smiles": "COc1cccc(OC)c1C(=O)Nc1ccc(NC(=O)c2ccco2)cc1", "values": [{"measurement": "cell number change", "value": 10.3, "unit": "%"}, {"measurement": "AC50", "setting": "[2]", "value": "6.51 µM [rising, partial curve]"}]}, {"smiles": "CC1CCCN(C(=O)C2(NC(=O)Nc3cccc(F)c3)CCCCC2)C1", "note": "(stereo unspecified)", "values": [{"measurement": "cell number change", "value": 9.68, "unit": "%"}, {"measurement": "AC50", "setting": "[2]", "value": "3.26 µM [rising, full curve]"}]}, {"smiles": "O=[N+]([O-])c1ccc(C(O)C23CN4CN(CN(C4)C2)C3)cc1", "note": "(stereo unspecified)", "values": [{"measurement": "cell number change", "value": 24.9, "unit": "%"}, {"measurement": "AC50", "setting": "[2]", "value": "32.6 µM [rising, single point]"}]}, {"smiles": "CN(C[C@H](c1ccccc1)N(C[C@H](Cc1ccccc1)N(CCc1ccccc1)N=O)N=O)N=O", "values": [{"measurement": "cell number change", "value": 11.1, "unit": "%"}, {"measurement": "AC50", "setting": "[2]", "value": "7.31 µM [rising, partial curve, poor fit]"}]}, {"smiles": "Cc1csc(SCC(=O)Nc2cccc(C)c2C)n1", "values": [{"measurement": "cell number change", "value": 12, "unit": "%"}, {"measurement": "AC50", "setting": "[2]", "value": "2.59 µM [rising, partial curve, poor fit]"}]}, {"smiles": "CC(C)(C)NC(=O)C1CCN(c2ccc(S(=O)(=O)N3CCOCC3)cc2Cl)CC1", "values": [{"measurement": "cell number change", "value": -4.99, "unit": "%"}]}, {"smiles": "c1ccc(CN2CCN(c3ncnc4c3[nH]c3ccccc34)CC2)cc1", "values": [{"measurement": "cell number change", "value": -13.7, "unit": "%"}, {"measurement": "AC50", "setting": "[2]", "value": "9.2 µM [rising, partial curve, poor fit]"}]}, {"smiles": "COc1cccc(OCCOCC(O)CN2CCN(Cc3ccc(Cl)cc3)CC2)c1", "note": "(stereo unspecified)", "values": [{"measurement": "cell number change", "value": 2.98, "unit": "%"}]}, {"smiles": "CCCN1CCC(NC(=O)Nc2ccccc2C(=O)OC)CC1", "values": [{"measurement": "cell number change", "value": -40.5, "unit": "%"}, {"measurement": "AC50", "setting": "[1]", "value": "0.206 µM [falling, full curve]"}]}, {"smiles": "O=C(CCc1c[nH]c2ccccc12)N/N=C/c1ccc2c(c1)OCO2", "values": [{"measurement": "cell number change", "value": 32.9, "unit": "%"}, {"measurement": "AC50", "setting": "[1]", "value": "0.731 µM [falling, single point]"}]}, {"smiles": "COC(=O)CNC(=O)C1CCN(C(=O)OCc2ccccc2)CC1", "values": [{"measurement": "cell number change", "value": -30.1, "unit": "%"}, {"measurement": "AC50", "setting": "[1]", "value": "4.11 µM [falling, full curve]"}]}, {"smiles": "CC(=O)Nc1ccc(NC2(C)C(=O)c3ccccc3C2=O)cc1", "values": [{"measurement": "cell number change", "value": -0.286, "unit": "%"}]}, {"smiles": "CSc1ccccc1C(=O)NCC1CCCO1", "note": "(stereo unspecified)", "values": [{"measurement": "cell number change", "value": -68.6, "unit": "%"}, {"measurement": "AC50", "setting": "[1]", "value": "14.6 µM [falling, partial curve, poor fit]"}]}, {"smiles": "COCCn1c(-c2cc(OC)c(OC)c(OC)c2)nc2nc3ccccc3nc21", "values": [{"measurement": "cell number change", "value": -3.24, "unit": "%"}]}, {"smiles": "CCn1nccc1C(=O)Nc1ccc(Cl)cc1Cl", "values": [{"measurement": "AC50", "setting": "[1]", "value": "2.59 µM [rising, partial curve]"}]}]}
